What all share (assay): co-IP
Experiment [1] addresses T1, 3HA-Red1^1-345 (Saccharomyces cerevisiae) (UniProt P14291).
T1 sequence: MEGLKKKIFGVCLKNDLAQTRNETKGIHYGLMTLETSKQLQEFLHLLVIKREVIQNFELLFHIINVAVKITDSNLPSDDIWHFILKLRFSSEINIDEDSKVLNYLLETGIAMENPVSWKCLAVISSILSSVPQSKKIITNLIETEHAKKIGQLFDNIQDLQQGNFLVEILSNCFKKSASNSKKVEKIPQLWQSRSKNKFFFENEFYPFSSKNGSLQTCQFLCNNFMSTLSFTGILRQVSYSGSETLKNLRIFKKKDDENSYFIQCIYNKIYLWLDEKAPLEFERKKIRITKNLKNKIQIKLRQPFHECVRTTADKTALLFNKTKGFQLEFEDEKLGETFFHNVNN

For experiment [2], the target named is T2, 3HA-Red1^1-366 (Saccharomyces cerevisiae) (UniProt P14291).
T2 sequence: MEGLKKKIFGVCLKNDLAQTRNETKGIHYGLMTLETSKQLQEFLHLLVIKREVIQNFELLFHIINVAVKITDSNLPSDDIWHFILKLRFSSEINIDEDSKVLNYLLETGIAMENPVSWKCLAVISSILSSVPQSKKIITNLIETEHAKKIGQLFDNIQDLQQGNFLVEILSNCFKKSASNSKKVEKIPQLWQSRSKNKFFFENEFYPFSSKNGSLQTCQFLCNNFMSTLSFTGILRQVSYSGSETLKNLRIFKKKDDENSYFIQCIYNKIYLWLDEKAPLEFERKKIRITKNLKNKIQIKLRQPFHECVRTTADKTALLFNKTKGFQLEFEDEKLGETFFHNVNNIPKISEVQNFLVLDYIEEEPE

Experiment [3] concerns the target T3, 3HA-Red1^1-818 (Saccharomyces cerevisiae) (UniProt P14291).
T3 sequence: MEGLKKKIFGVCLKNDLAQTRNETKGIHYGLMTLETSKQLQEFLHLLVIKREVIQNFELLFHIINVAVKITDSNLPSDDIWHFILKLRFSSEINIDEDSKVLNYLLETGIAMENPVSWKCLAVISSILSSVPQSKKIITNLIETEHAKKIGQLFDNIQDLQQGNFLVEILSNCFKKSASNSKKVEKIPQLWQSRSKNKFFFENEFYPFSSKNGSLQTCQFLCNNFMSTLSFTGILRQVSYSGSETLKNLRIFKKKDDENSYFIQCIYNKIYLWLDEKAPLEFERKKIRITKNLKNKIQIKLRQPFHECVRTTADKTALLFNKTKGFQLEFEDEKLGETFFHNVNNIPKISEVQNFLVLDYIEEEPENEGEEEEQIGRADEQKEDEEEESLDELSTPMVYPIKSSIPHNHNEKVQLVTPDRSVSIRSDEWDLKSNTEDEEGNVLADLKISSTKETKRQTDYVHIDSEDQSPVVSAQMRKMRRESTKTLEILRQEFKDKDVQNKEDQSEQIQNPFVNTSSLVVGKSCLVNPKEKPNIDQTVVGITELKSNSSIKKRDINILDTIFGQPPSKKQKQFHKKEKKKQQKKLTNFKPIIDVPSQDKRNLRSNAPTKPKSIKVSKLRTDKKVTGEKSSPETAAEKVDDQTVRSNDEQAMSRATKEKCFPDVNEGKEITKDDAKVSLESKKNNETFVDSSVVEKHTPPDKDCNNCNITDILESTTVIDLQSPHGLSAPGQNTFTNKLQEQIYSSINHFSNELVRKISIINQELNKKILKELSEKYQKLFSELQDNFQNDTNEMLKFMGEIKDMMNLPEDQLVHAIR

Experiment [4] concerns the target T4, 3HA-Red1^346-827 (Saccharomyces cerevisiae) (UniProt P14291).
T4 sequence: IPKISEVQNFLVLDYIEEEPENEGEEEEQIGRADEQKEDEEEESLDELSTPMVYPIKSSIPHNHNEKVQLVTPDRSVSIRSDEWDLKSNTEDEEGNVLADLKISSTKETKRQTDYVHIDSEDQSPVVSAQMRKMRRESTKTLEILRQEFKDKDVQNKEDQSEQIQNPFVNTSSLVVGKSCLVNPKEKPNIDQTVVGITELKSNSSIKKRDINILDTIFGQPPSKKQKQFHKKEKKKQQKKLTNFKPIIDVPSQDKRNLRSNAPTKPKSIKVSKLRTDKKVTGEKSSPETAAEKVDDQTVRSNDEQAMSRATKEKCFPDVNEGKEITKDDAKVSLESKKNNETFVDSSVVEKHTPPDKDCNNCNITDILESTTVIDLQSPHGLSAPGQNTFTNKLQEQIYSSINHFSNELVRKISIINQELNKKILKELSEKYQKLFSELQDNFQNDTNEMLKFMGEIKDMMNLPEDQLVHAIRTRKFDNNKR

These are yes or no findings as the source states them, for the method shown. In cells and extracts the contact can be indirect. Some results given as binding are weak or reduced against the parent protein; the word gives no strength. Where a sequence is shown, tags or fusion partners need not be part of it.

B1: Hop1 (pGAL1::HOP1), untagged (protein, UniProt P20050 1-605)
chain: MSNKQLVKPKTETKTEITTEQSQKLLQTMLTMSFGCLAFLRGLFPDDIFVDQRFVPEKVEKNYNKQNTSQNNSIKIKTLIRGKSAQADLLLDWLEKGVFKSIRLKCLKALSLGIFLEDPTDLLENYIFSFDYDEENNVNINVNLSGNKKGSKNADPENETISLLDSRRMVQQLMRRFIIITQSLEPLPQKKFLTMRLMFNDNVDEDYQPELFKDATFDKRATLKVPTNLDNDAIDVGTLNTKHHKVALSVLSAATSSMEKAGNTNFIRVDPFDLILQQQEENKLEESVPTKPQNFVTSQTTNVLGNLLNSSQASIQPTQFVSNNPVTGICSCECGLEVPKAATVLKTCKSCRKTLHGICYGNFLHSSIEKCFTCIFGPSLDTKWSKFQDLMMIRKVFRFLVRKKKGFPASITELIDSFINVEDQNNEVKERVAFALFVFFLDETLCLDNGGKPSQTIRYVTSSVLVDVKGIVIPNTRKQLNVNHEYKWHFTTSSPKAESFYQEVLPNSRKQVESWLQDITNLRKVYSEALSPSSTLQELDLNSSLPTQDPIISGQKRRRYDLDEYLEEDKSSVVNDTIKAKDFDESVPAKIRKISVSKKTLKSNW
B1: the binding entry was “no binding” in experiment [1], “binds” in experiment [2], “binds” in experiment [3] and “binds” in experiment [4].

B2: GFP-Mek1 (pGAL1::GFP-MEK1) (enzyme, UniProt P24719 1-497)
chain: MRPLYSCNLATKDDIEMAGGVAPAHLEVNVGGYNTEQTIPIVKHQLVKVGRNDKECQLVLTNPSISSVHCVFWCVFFDEDSIPMFYVKDCSLNGTYLNGLLLKRDKTYLLKHCDVIELSQGSEENDIKKTRLVFMINDDLQSSLDPKLLDQMGFLREVDQWEITNRIVGNGTFGHVLITHNSKERDEDVCYHPENYAVKIIKLKPNKFDKEARILLRLDHPNIIKVYHTFCDRNNHLYIFQDLIPGGDLFSYLAKGDCLTSMSETESLLIVFQILQALNYLHDQDIVHRDLKLDNILLCTPEPCTRIVLADFGIAKDLNSNKERMHTVVGTPEYCAPEVGFRANRKAYQSFSRAATLEQRGYDSKCDLWSLGVITHIMLTGISPFYGDGSERSIIQNAKIGKLNFKLKQWDIVSDNAKSFVKDLLQTDVVKRLNSKQGLKHIWIAKHLSQLERLYYKKILCNNEGPKLESINSDWKRKLPKSVIISQAIPKKKKVLE
Turning to B2, the binding result in experiment [1], in experiment [2], in experiment [3] and in experiment [4] was “binds” in each case.

The values are drawn from doi:10.1101/2022.04.06.487319 (bioRxiv, 2022).
